Source: PMC8427838
No constants are given. Whether binding was seen depends on the method and setting. Binding seen in cells or lysates may run through a third protein. Binding calls can cover weak binding; strength is not graded here. Where a sequence is shown, tags or fusion partners need not be part of it.

Molecular target: GST-C-ERMAD-moesin (C-terminal ERMAD domain of moesin fused to GST) (human)
Test: pull-down; immobilised GST fusion proteins incubated with normalized whole-cell lysates of HEK-293 cells, rocking 3 h at 4 °C; western blot (anti-GFP or anti-Myc); only the target purified

binding: binds weakly
B1: TMIGD1-Myc (protein, UniProt Q6UXZ0 30-262)
chain: VLTVNGKTENYILDTTPGSQASLICAVQNHTREEELLWYREEGRVDLKSGNKINSSSVCVSSISENDNGISFTCRLGRDQSVSVSVVLNVTFPPLLSGNDFQTVEEGSNVKLVCNVKANPQAQMMWYKNSSLLDLEKSRHQIQQTSESFQLSITKVEKPDNGTYSCIAKSSLKTESLDFHLIVKDKTVGVPIEPIIAACVVIFLTLCFGLIARRKKIMKLCMKDKDPHSETAL
